The whole screen tested about 200,000 compounds, of which about 25 (0.01%) were called active. This list was built around the results that the source calls inconclusive (neither active nor inactive); the mix of calls is not that of the screen. Calls follow the shape of the dose curve; as a rule, active = well fitted inhibition curve with a large enough effect in the signal ratio, with a control signal flat (not every such curve was filed as active); inconclusive = small, poorly fitted or top-dose-only effect, or effect the other way, or a change in a side signal; inactive = flat fitted curve, though single readings scatter; the % refers to the signal ratio. A potency beside an inconclusive call is a rough fit, not a confirmed value.
assay: qHTS Assay for Modulators of Lamin A Splicing; conditions: HeLa LMNA splicing GFP/RFP minigene ratio, 48 h; ratio change, negative = inhibition: at 46.1 µM (top of the series) unless noted
Procedure, shortened: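 Read-out is the ratio of GFP to DsRed2 object intensity, acquired by 488 nm laser-scanning cytometry on HeLa lamin A-EGFP minigene reporter cells. Compound incubation 48 hrs at 37 °C in Opti-MEM with 2% FBS; DMSO 0.5% final.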
% is scaled to controls: 0 for no effect and ±100 for the full control effect; potency is read from the fitted curve at half-maximal effect.

Compound | ratio change, negative = inhibition | Potency
COc1cc(OC)cc(C(=O)Nc2nnc(-c3cccnc3)o2)c1 | inconclusive: 35.6% [at 46 µM] | –
O=C(COc1ccc(Br)cc1Cl)NC(=O)NCc1ccccc1 | inconclusive: 11% | –
CCN(CC)C(=O)c1nn(-c2ccccc2)c2c1C1CCC2(C)C1(C)C (stereo not drawn) | inconclusive: 2.91% [at 46 µM] | –
Cn1nc([N+](=O)[O-])nc1S(C)(=O)=O | inconclusive: 229% [at 46 µM] | –
COc1ccc(OC)c2c(C)cc(N3CCN(C(=O)c4ccc(C)cc4)CC3)nc12 | inconclusive: -32.4% [at 46 µM] | –
O=C1CC(c2ccccc2)CC2=C1CN(C1CCCCC1)CN2 (stereo not drawn) | – | inconclusive: 35.5 µM [fluorescent, single point]
CCN(CC)C(=O)COC(=O)c1cc(-c2ccco2)nc2ccccc12 | inconclusive: -37.7% [at 46 µM] | –
COc1ccc(-c2cc(-c3n[nH]c(=S)n3-c3cccc4ccccc34)[nH]n2)cc1 | inactive: 4.84% [at 9.22 µM] | –
CC1=C(C(=O)Nc2cc(Cl)ccc2C)C(c2ccccc2F)n2ncnc2N1 (stereo not drawn) | inconclusive: 7.49% [at 46 µM] | –
Cc1ccc2sc(N(CCCN(C)C)C(=O)c3ccco3)nc2c1C | inconclusive: -22.1% [at 46 µM] | –
O=C(Nc1c(Cl)ccc2nsnc12)c1ccco1 | inconclusive: -0.53% [at 46 µM] | –
O=C(NCc1cccc(Cl)c1)c1cnc(N2CCCCC2)c2ccccc12 | inactive | –
COc1ccc(/C=C/C(=O)OCC(=O)Nc2c(C)cccc2C)cc1 | inactive | –
Cc1csc(NC(=O)Cc2c[nH]c3ccccc23)n1 | inactive | –
O=C(Cc1ccccc1F)OCC(=O)N1CCN(C(=O)c2ccco2)CC1 | inactive | –
Cc1ccc(C(=O)COc2ccccc2C(=O)Nc2ccccc2)cc1 | inconclusive: 3.41% | –
COc1ccc(CCNC(=O)c2cnn(-c3ccc(C)c(C)c3)c2NC(=O)c2ccco2)cc1OC | inactive | –
Cc1ccsc1C(=O)N(c1nc2ccccc2s1)c1c(C)cccc1C | inconclusive: -29.6% | –
COc1ccc(C(=O)Nn2c(SCC(=O)NCc3ccco3)nc3ccccc3c2=O)cc1 | inactive | –
CC(C)(C)c1csc(N/N=C/c2cccnc2)n1 | inconclusive: -18.9% [at 46 µM] | –
COc1ccc(CCNC(=O)C(=O)NCC(c2ccco2)S(=O)(=O)c2cccs2)cc1 (stereo not drawn) | inconclusive: 12.7% [at 46 µM] | –
CCc1cc2c(N[C@@H](Cc3c[nH]c4ccccc34)C(=O)O)ncnc2s1 | inactive | –
Cc1[nH]c2ccccc2c1C(c1ccccn1)N1CCCC1 (stereo not drawn) | inconclusive: -38.3% [at 46 µM] | –
COc1ccc(S(=O)(=O)NCc2ccc(C(=O)N3CCc4ccccc4C3)cc2)cc1 | – | inconclusive: 35.5 µM [falling, single point]
COC(=O)c1ccc(-n2c(C)cc(C(=O)CSc3ccc(NC(C)=O)cc3)c2C)cc1 | inconclusive: 8.16% | –
CC(=O)Oc1cc2c(cc1Cl)C(c1cccs1)CC1(CC(C)(C)NC(=S)N1)O2 (stereo not drawn) | inconclusive: 10.6% [at 46 µM] | –
NC(N)=Nc1cc2ccccc2c2ccccc12 | inconclusive: -14.7% [at 46 µM] | –

Quoted at random: 3 compounds from above, in no set order.
Compound | ratio change, negative = inhibition | Potency
Cc1ccsc1C(=O)N(c1nc2ccccc2s1)c1c(C)cccc1C | inconclusive: -29.6% | –
Cc1[nH]c2ccccc2c1C(c1ccccn1)N1CCCC1 (stereo not drawn) | inconclusive: -38.3% [at 46 µM] | –
O=C1CC(c2ccccc2)CC2=C1CN(C1CCCCC1)CN2 (stereo not drawn) | – | inconclusive: 35.5 µM [fluorescent, single point]

Later entries

Compound | ratio change, negative = inhibition | Potency
O=C(CCl)NNC(=O)c1c(O)c2ccccc2[nH]c1=O | – | inconclusive: 35.5 µM [activator, single point]
CC1CCc2c(N3CCC(O)CC3)c(F)cc3c(=O)c(C(=O)O)cn1c23 (stereo not drawn) | – | inconclusive: 0.708 µM [inhibitor, full curve, poor fit]
O=C(c1c(Cl)cccc1Cl)N1CCCCCC1 | inactive | –
CCC(=O)N/N=C(\C)CC(=O)Nc1ccc2c(c1)OCCO2 | inconclusive: -0.823% [at 46 µM] | –
COc1cccc(CNC(=O)CN2N=C(c3ccc(C)cc3)CCC2=O)c1 | inactive | –
O=C(NC1CCCCC1)C1c2ccccc2C(=O)N1Cc1ccc2c(c1)OCO2 (stereo not drawn) | inconclusive: 23.5% [at 46 µM] | –
CC(C)CC(=O)NCC(c1ccc2c(c1)OCO2)N1CCN(c2ccccc2F)CC1 (stereo not drawn) | inactive | –
Cc1cccc(-c2nc(SCC(=O)NCC3CCCO3)c3c(=O)n(C)c(=O)n(C)c3n2)c1 (stereo not drawn) | inconclusive: 9.42% [at 46 µM] | –
CC(C)C1OC2(C)OC(=N)C1(C#N)C(C#N)(C#N)C2c1ccccc1 (stereo not drawn) | inactive | –
Cc1ccc(C2=Nc3ccccc3N(CC(=O)Nc3ccccc3C)C(=O)C2)cc1C | inactive | –
O=C1CCCCCN1Sc1ccccc1 | inactive | –
Cc1ccc(NC(=O)C2CCCN(S(=O)(=O)c3cccc4cccnc34)C2)c(Br)c1 (stereo not drawn) | inconclusive: -12.9% [at 46 µM] | –
Cc1nnc(SCc2c(Cl)cccc2[N+](=O)[O-])s1 | – | inconclusive: 11.2 µM [falling, partial curve, poor fit]
CN=C(NC)SC1CC(=O)N(c2ccccc2)C1=O (stereo not drawn) | inactive | –
O=C1C2C3C=CC(C3)C2C(=O)N1c1ccccc1 (stereo not drawn) | inconclusive: 1.53% | –
Cc1ccc(-n2nnnc2CNC(=O)c2ccc(F)cc2)cc1C | inconclusive: 4.54% [at 46 µM] | –
COc1ccccc1-c1nn2c(=O)cc(CN3CCN(S(=O)(=O)c4ccc(C)cc4)CC3)nc2s1 | inconclusive: 2.71% [at 46 µM] | –
Cc1cc(=O)n(-c2ccccc2)n1C | inconclusive: -6.16% | –
COc1cc(Cl)c(C)cc1NC(=O)COc1cc(C)nc(C(C)C)n1 | inconclusive: 12.8% | –
CCOc1ccc(NC(=O)C2C3CCC4C(CCC32)C4(Cl)Cl)cc1 (stereo not drawn) | inconclusive: -22.4% [at 46 µM] | –
CCc1nc(CN2CCN(Cc3ccc(F)c(F)c3)C(CCO)C2)c(C)[nH]1 (stereo not drawn) | inactive | –
COc1ccc(CN2CCC(CO)(CCOc3ccccc3)CC2)c(OC)c1C | inactive | –
NC(=O)C1CCCN1 (stereo not drawn) | inconclusive: 0.521% [at 46 µM] | –
CN(C)c1ncc2nc(-c3ccc(Cl)cc3)c(=O)n(-c3ccccc3)c2n1 | – | inconclusive: 15.8 µM [cytotoxic, partial curve]
CN1C(=O)SC(Nc2ccccc2)C1=O (stereo not drawn) | inactive | –
CCCCc1nn2c(=O)cc(COC(=O)c3cccc(NC(=O)c4cccc(C)c4)c3)nc2s1 | inconclusive: -2.48% [at 46 µM] | –

— PubChem BioAssay AID1487 (National Center for Advancing Translational Sciences (NCATS), 2009)
